Data taken from patent US20060154864.
For some of these results: Results from cells or extracts need not show a direct contact. For some of these results: Protein sequences can lack the tags named with them. For some of these results: For at least one entry, the source does not settle the construct or the ends of the probe. For some of these results: Negatives hold for the conditions tested. For some of these results: Weaker means in comparison with the reference protein, sequence or condition of that experiment.

By UniProt entry, the sequences of proteins in these tests, tags left out. Where a name states a change or a piece, a line headed by the entry shows the natural chain unless it says otherwise. Residues count along the entry.
UniProt Q01714, 2-786: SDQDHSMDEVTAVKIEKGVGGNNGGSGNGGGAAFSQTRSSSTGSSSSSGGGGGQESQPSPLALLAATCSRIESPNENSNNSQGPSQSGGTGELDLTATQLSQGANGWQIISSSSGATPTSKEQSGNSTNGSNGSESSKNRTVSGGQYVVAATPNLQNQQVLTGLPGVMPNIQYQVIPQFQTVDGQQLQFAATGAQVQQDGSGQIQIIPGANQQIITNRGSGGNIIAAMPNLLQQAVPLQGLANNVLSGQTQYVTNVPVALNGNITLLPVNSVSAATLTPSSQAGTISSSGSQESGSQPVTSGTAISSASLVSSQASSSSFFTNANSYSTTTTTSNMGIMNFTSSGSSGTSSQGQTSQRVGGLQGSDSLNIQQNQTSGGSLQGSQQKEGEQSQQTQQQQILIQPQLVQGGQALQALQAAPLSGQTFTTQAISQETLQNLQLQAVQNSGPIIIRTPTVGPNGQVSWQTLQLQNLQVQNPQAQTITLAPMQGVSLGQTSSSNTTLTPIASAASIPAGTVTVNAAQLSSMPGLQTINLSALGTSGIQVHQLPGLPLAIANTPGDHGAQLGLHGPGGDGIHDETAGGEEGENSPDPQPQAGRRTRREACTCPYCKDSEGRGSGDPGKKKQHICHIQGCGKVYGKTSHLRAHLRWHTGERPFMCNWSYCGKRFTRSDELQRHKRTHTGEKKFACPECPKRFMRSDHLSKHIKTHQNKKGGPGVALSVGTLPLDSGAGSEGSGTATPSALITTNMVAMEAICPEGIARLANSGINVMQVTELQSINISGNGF
UniProt O88275: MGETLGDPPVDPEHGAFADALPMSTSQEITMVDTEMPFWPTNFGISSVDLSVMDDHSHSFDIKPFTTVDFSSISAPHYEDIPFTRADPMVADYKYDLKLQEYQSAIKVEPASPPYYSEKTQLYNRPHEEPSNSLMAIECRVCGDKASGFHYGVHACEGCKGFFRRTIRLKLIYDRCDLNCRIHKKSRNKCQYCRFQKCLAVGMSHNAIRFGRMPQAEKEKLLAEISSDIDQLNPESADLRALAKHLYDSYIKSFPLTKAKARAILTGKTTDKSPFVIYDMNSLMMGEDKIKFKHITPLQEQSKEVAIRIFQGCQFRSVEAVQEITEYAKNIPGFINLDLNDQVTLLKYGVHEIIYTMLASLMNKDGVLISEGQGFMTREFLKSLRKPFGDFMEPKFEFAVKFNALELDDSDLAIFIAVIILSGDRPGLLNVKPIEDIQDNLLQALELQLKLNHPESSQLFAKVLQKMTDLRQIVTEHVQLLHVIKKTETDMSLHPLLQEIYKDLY
UniProt G3V7R4: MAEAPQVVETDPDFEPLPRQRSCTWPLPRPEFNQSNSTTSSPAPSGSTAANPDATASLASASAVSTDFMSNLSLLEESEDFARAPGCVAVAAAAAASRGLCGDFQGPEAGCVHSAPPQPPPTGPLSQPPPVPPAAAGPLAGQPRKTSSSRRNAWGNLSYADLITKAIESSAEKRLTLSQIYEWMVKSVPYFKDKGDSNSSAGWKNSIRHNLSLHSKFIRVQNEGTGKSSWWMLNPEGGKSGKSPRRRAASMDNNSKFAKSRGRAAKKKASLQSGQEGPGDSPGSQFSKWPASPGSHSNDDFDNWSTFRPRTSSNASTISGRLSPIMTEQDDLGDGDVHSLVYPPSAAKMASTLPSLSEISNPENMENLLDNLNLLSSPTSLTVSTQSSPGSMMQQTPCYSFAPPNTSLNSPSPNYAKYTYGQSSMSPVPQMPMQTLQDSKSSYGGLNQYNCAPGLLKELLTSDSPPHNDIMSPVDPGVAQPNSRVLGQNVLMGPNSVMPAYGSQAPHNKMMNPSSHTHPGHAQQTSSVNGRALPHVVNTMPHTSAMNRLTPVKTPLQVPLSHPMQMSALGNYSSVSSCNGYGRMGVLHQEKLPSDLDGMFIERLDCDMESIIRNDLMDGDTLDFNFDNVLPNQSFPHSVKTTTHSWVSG

Key:
[1] = test system: IRE-BP1 C-terminal fragment (Trx fusion) (Rattus norvegicus); assay: competition with a labelled probe; details: purified recombinant protein, protein details: N-terminal Trx-His6 (pET-32a, E. coli)
[2] = test system: IRE-BP1 endogenous (hepatic nuclear extract) (Rattus norvegicus); assay: EMSA; details: protein in an extract
[3] = molecular target: Sp1 (hepatic nuclear extract) (Rattus norvegicus) (UniProt Q01714); assay: EMSA; details: protein in an extract
[4] = molecular target: PPAR gamma (hepatic nuclear extract) (Rattus norvegicus) (UniProt O88275); assay: EMSA; details: protein in an extract
[5] = molecular target: Foxo1 (hepatic nuclear extract) (Rattus norvegicus) (UniProt G3V7R4); assay: EMSA; details: protein in an extract
[6] = test system: IRE-BP1 C-terminal fragment (3.4-kb cDNA) (Rattus norvegicus); assay: activity in cells; details: no significant effect on transcription; protein in cells; only the site is given
[7] = molecular target: T1, HBP1 (HMG box containing protein 1) (Rattus norvegicus) (UniProt Q62661); assay: one hybrid; details: protein in cells; protein details: GAL4 AD fusion (yeast one-hybrid); label: 32P
T1 sequence (looked up, limits assumed): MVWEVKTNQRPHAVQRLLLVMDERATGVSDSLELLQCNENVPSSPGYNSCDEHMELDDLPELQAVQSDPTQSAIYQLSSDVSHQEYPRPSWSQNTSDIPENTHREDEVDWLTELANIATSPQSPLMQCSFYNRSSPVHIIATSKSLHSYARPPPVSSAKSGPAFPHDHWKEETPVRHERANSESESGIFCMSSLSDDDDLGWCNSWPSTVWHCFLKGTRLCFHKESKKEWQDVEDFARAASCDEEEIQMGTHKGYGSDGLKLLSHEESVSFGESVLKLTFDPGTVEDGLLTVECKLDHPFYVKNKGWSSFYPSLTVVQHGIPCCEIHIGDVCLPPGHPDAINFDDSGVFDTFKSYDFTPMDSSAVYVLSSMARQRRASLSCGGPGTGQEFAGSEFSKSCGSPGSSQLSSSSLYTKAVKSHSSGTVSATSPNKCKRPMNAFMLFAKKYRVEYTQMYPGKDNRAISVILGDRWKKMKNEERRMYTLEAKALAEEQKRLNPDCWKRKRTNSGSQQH

[8] = test system: NFkB p65; assay: one hybrid; details: protein in cells; protein details: GAL4 AD fusion (yeast one-hybrid); label: 32P
[9] = test system: IRE-BP1 C-terminal fragment (Trx fusion) (Rattus norvegicus); assay: EMSA; details: purified recombinant protein; protein details: N-terminal Trx-His6 (pET-32a, E. coli); label: 32P
[10] = weaker competition, 50-fold excess

GCCTCATTATTCCTGCCCACCAAT (double strand) [IGF-1 IRE]
binding result ([1]; competed fully, 50-fold excess): binds
binding result [2]: binds
binding result [3]: binds

GTTTGTTTTGCTAGT (double strand) [IGFBP-1 IRE]
binding result [4]: no binding
binding result [2]: binds
binding result [5]: no binding
binding result [3]: no binding

ATCTATTTCCGTCATTAAGATA (double strand) [Prolactin IRE]
binding result ([1]; little competition, 50-fold excess): binds more weakly
activity on this sequence [6]: not active

TATTTTGCGTGAGAGTTTCTAAAAGTCCAT (double strand) [Amylase IRE]
binding result ([1]; competed fully, 50-fold excess): binds

AATTCAAGGGTATCCAGGAAAGTCTCCTTCAAG (double strand) [IGFBP-3 IRE]
binding result [7]: binds
binding result [8]: binds
binding result ([2]; label: 32P): binds
binding result ([3]; label: 32P): no binding
binding result [9]: binds

GACTAGAACAAACAAGTCCTGCGTA (double strand) [TAT IRE]
binding result [1, 10]: binds more weakly

TGGTGTTTTGACAAC (double strand) [PEPCK IRE]
binding result [1, 10]: binds more weakly

GGGACTTTCCGGGACTTTCC (double strand) [NFkB consensus]
binding result ([1]; not competed, 50-fold excess): no binding

AAGTTCCCCAACTTTCCCGCCTCTCAGCCTTTGAAAG (double strand) [GAPDH IRE]
binding result ([1]; competed fully, 50-fold excess vs IGFBP-3 IRE): binds
